Each structure is given as a SMILES string. Counter-ions that a name gives are not always drawn. This is one part of the list. The calls rarely recur for the same compound in another form.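 Kinases, fused to nanoluciferase, were expressed in K562 cells; luminescence was measured every 4 h from 2 to 18 h as percent of control (DMSO = 100%, positive control = 0%). A time point is decreased if signal falls significantly (2 sigma). Hits were called by the authors by a rule that is not shown; the count of time points alone does not decide it.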

Protein sequences, listed by entry. Tags and fused reporters are not part of them. Lines headed by an entry give the natural chain unless they say otherwise; changes in a name come on top.
UniProt Q12851: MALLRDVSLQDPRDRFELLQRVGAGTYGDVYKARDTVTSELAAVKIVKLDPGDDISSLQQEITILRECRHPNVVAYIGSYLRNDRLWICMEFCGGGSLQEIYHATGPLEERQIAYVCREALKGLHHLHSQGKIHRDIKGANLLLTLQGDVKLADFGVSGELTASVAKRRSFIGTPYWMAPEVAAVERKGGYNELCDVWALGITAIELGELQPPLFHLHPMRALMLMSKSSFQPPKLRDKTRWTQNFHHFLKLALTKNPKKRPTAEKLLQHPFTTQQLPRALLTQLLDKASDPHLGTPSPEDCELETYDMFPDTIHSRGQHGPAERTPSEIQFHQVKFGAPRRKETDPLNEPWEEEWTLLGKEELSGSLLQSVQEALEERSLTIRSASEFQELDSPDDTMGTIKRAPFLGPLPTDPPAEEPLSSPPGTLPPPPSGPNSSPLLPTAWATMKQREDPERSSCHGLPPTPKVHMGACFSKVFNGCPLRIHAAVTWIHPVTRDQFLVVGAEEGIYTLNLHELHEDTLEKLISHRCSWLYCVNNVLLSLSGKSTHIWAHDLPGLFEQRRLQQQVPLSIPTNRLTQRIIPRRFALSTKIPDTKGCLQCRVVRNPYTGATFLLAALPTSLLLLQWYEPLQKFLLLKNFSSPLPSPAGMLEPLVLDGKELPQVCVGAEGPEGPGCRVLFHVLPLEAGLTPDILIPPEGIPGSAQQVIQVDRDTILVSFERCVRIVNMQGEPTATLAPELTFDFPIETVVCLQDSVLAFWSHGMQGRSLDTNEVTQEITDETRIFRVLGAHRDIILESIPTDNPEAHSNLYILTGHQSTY
UniProt P28482, whole entry: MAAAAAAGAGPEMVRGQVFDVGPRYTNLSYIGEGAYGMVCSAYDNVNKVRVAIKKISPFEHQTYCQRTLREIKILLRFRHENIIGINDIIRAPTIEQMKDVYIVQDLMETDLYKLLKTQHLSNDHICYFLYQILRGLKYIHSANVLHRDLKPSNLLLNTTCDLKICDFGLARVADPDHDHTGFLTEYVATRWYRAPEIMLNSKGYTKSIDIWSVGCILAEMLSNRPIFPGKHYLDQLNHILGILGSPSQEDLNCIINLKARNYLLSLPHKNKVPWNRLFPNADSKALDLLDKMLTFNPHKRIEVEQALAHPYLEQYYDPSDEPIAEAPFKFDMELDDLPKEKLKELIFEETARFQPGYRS

For the first experiment, the target named is MAP4K2 (UniProt Q12851). Briefly: number of time points (of 5) at which kinase-Nluc abundance scored as decreased, DMSO-normalised (count); higher = more persistent destabilization. The conditions noted are these: K562; 2-18 h.
In the case of `Cc1ccc2cc(-c3c(C)ccc(C(=O)c4c(-c5ccccc5)n(C)n(-c5ccccc5)c4=O)c3N)ccc2n1` (2.5 µM), the “number of time points” value amounted to 0.

Consider `FC(F)(c1ccc2ncccc2c1)c1nnc2ccc(-c3ccncc3)nn12` (10 µM), for which the “number of time points” value turned out to be 0. On to `O=C1N[C@@H](Cc2c[nH]c3ccccc23)C(=O)N2CCC[C@@H]12` [Brevianamide F] (10 µM), for which the “number of time points” value was found to be 0.

Turning to `Cc1nc2sccn2c(=O)c1CCN1CCC(=C(c2ccccc2)c2ccc(F)cc2)CC1` (10 µM), the “number of time points” value turned out to be 0. On to `O=c1[nH]c(=O)n([C@@H]2O[C@H](CO)[C@@H](O)[C@@H]2O)cc1/C=C/Br` [Sorivudine] (10 µM), for which the “number of time points” value worked out at 0.

Consider `COc1cc2nccc(Oc3ccc(NC(=O)NC4CC4)c(Cl)c3)c2cc1C(N)=O` [Lenvatinib (mesylate)] (10 µM), for which the “number of time points” value was determined as 0. With `CN1C(=O)N[C@H](Cc2c[nH]c3c(Cl)cccc23)C1=O` [Necrostatin 2] (10 µM), the “number of time points” value was found to be 0. On the same count and under the same terms, to `CCN1CCN(Cc2ccc(Nc3ncc(F)c(-c4cc(F)c5nc(C)n(C(C)C)c5c4)n3)nc2)CC1` [Abemaciclib] (2 µM) belongs 0; to `Cc1ccc2nc(NCCN)c3ncc(C)n3c2c1` (2.5 µM), 0. On the same count and under the same terms, the value for `CNC(=O)c1c(F)cccc1Nc1nc(Nc2cc3c(cc2OC)CCN3C(=O)CN(C)C)nc2[nH]ccc12` (10 µM) was 0; that for `Cn1nccc1Nc1nccc(-c2ccn([C@H](CO)c3ccc(Cl)c(F)c3)c(=O)c2)n1` [Ravoxertinib hydrochloride] (10 µM) was 0; that for `CN(C)CCSSCCNC(=O)C1CCN(C(=O)CSc2ccc(Cl)cc2)CC1` (10 µM) was 0.

`CNC(=O)c1cc(COc2nnc(Nc3ccc(Cl)cc3)c3ccoc23)ccn1` [Telatinib] (10 µM): the “number of time points” value is 0. Still for that read-out and setting: the value for `NCCNS(=O)(=O)c1cccc2c(Cl)cccc12` [A-3 (hydrochloride)] (10 µM) was 0; that for `O=C(Nc1ccc(CN2CCOCC2)cc1)c1ccc(-c2cccc(Cl)c2)o1` (10 µM) was 0; that for `CCN1CCN(Cc2ccc(-c3cc4c(N[C@H](C)c5ccccc5)ncnc4[nH]3)cc2)CC1` (2.5 µM) was 0.

In the case of `COc1cccc(OC)c1C(=O)OCc1cc(O)ccc1O[C@@H]1O[C@H](CO)[C@@H](O)[C@H](O)[C@H]1O` [Curculigoside] (10 µM), the “number of time points” value is 0. Still for that read-out and setting: to `Nc1ncnc2c1c(-c1ccc(Oc3ccccc3)cc1)nn2C1CCCC1` (2.5 µM) belongs 0; to `CC#CC(=O)N1CC[C@@H](n2c(=O)n(-c3ccc(Oc4ccccc4)cc3)c3c(N)ncnc32)C1` [Tirabrutinib] (10 µM), 0.

A further experiment addresses MAPK1 (UniProt P28482). The experiment is described as above. The conditions noted are these: K562; 2-18 h.
As to `CCc1c(C(=O)NNC(=O)C(O)c2cc(F)cc(F)c2)ccc(O)c1C` (configuration not stated) (10 µM), the “number of time points” value was found to be 0. On the same count and under the same terms, the value for `COc1cc2ncnc(Nc3ccc(Cl)cc3F)c2cc1OC` (10 µM) was 0. Still for that read-out and setting: the value for `COc1cc(/C=C/C(=O)NCC(O)c2ccc(O)cc2)ccc1O` (configuration not stated) [N-Feruloyloctopamine] (2.5 µM) was 0; that for `NC(=O)c1nc(Nc2ccccc2)sc1NC(=O)C1CCCCC1` (10 µM) was 0; that for `O=c1cc(CN2CCOCC2)occ1OCCCCCSc1ccnc2cc(C(F)(F)F)ccc12` (10 µM) was 0. Same read-out and setting: the value for `O=C(O)CCC(=O)Nc1ccc(Br)cn1` [Bikinin] (10 µM) was 0; that for `CC[C@@H](Oc1nc(Oc2cc(C)cc(-c3cccc(CN)c3)c2)c(F)cc1F)C(=O)O` (10 µM) was 0; that for `C[C@]1(O)CCN(c2nc(N3C[C@H](O)[C@@H](O)C3)cc(C(F)(F)F)c2C#N)C1` (10 µM) was 0. For `COc1ccccc1-c1cc(Nc2cccc(CS(N)(=O)=O)c2)ncn1` (10 µM), the “number of time points” value stood at 0. Turning to `CC(=O)c1c(C)cc2cccc(O)c2c1O` [Nepodin] (10 µM), the “number of time points” value was found to be 0. On the same count and under the same terms, the value for `NC(=O)c1ccc2[nH]ccc2c1` (10 µM) was 0. On the same count and under the same terms, the value for `COc1cc2c(cc1OC)CN(S(=O)(=O)c1ccc(OC)c(N3CCN(C(=O)c4ccc(F)cc4C(F)(F)F)CC3)c1)CC2` (10 µM) was 0; that for `OCCn1cc(-c2ccc3c(c2)CC/C3=N\O)c(-c2ccncc2)n1` (10 µM) was 0; that for `C[C@@H]1CC[C@@H](Nc2nc(NC(C)(C)C)ncc2C(N)=O)C[C@H]1O` (10 µM) was 0. On the same count and under the same terms, to `CCc1cc2c(cc1N1CCC(N3CCOCC3)CC1)C(C)(C)c1[nH]c3cc(C#N)ccc3c1C2=O` [Alectinib] (10 µM) belongs 0; to `COCCNc1nc2ccc(C#CC3(O)CCCCC3)cc2n1-c1ccnc(N)n1` (10 µM), 0.

`Cc1[nH]c(/C=C2\C(=O)Nc3ccccc32)c(C)c1CCC(=O)O` [Orantinib] (10 µM): the “number of time points” value was determined as 0.

Turning to `Nc1cc(C(F)(F)F)c(-c2cc(N3CCOCC3)nc(N3CCOCC3)n2)cn1` [Buparlisib (Hydrochloride)] (2.5 µM), the “number of time points” value was found to be 0. On the same count and under the same terms, to `CCN1CCN(Cc2ccc(Nc3ncc(F)c(-c4cc(F)c5nc(C)n(C(C)C)c5c4)n3)nc2)CC1` [Abemaciclib (methanesulfonate)] (10 µM) belongs 0; to `Cc1ccc2cc(-c3c(C)ccc(C(=O)c4c(-c5ccccc5)n(C)n(-c5ccccc5)c4=O)c3N)ccc2n1` (2.5 µM), 0; to `FC(F)(c1ccc2ncccc2c1)c1nnc2ccc(-c3ccncc3)nn12` (10 µM), 0. As to `O=C1N[C@@H](Cc2c[nH]c3ccccc23)C(=O)N2CCC[C@@H]12` [Brevianamide F] (10 µM), the “number of time points” value stood at 0.

In the case of `Cc1nc2sccn2c(=O)c1CCN1CCC(=C(c2ccccc2)c2ccc(F)cc2)CC1` (10 µM), the “number of time points” value amounted to 0. For `O=c1[nH]c(=O)n([C@@H]2O[C@H](CO)[C@@H](O)[C@@H]2O)cc1/C=C/Br` [Sorivudine] (10 µM), the “number of time points” value amounted to 0.

For `COc1cc2nccc(Oc3ccc(NC(=O)NC4CC4)c(Cl)c3)c2cc1C(N)=O` [Lenvatinib (mesylate)] (10 µM), the “number of time points” value was found to be 0.

As to `CN1C(=O)N[C@H](Cc2c[nH]c3c(Cl)cccc23)C1=O` [Necrostatin 2] (10 µM), the “number of time points” value was 0. The same measure, in the same setting: the value for `CCN1CCN(Cc2ccc(Nc3ncc(F)c(-c4cc(F)c5nc(C)n(C(C)C)c5c4)n3)nc2)CC1` [Abemaciclib] (2 µM) was 0; that for `Cc1ccc2nc(NCCN)c3ncc(C)n3c2c1` (2.5 µM) was 0; that for `CNC(=O)c1c(F)cccc1Nc1nc(Nc2cc3c(cc2OC)CCN3C(=O)CN(C)C)nc2[nH]ccc12` (10 µM) was 0. Still for that read-out and setting: to `Cn1nccc1Nc1nccc(-c2ccn([C@H](CO)c3ccc(Cl)c(F)c3)c(=O)c2)n1` [Ravoxertinib hydrochloride] (10 µM) belongs 0; to `CN(C)CCSSCCNC(=O)C1CCN(C(=O)CSc2ccc(Cl)cc2)CC1` (10 µM), 0; to `CNC(=O)c1cc(COc2nnc(Nc3ccc(Cl)cc3)c3ccoc23)ccn1` [Telatinib] (10 µM), 0. On the same count and under the same terms, the value for `NCCNS(=O)(=O)c1cccc2c(Cl)cccc12` [A-3 (hydrochloride)] (10 µM) was 0; that for `O=C(Nc1ccc(CN2CCOCC2)cc1)c1ccc(-c2cccc(Cl)c2)o1` (10 µM) was 0; that for `CCN1CCN(Cc2ccc(-c3cc4c(N[C@H](C)c5ccccc5)ncnc4[nH]3)cc2)CC1` (2.5 µM) was 0. On to `COc1cccc(OC)c1C(=O)OCc1cc(O)ccc1O[C@@H]1O[C@H](CO)[C@@H](O)[C@H](O)[C@H]1O` [Curculigoside] (10 µM), for which the “number of time points” value is 0. Consider `Nc1ncnc2c1c(-c1ccc(Oc3ccccc3)cc1)nn2C1CCCC1` (2.5 µM), for which the “number of time points” value was 0.

Consider `CC#CC(=O)N1CC[C@@H](n2c(=O)n(-c3ccc(Oc4ccccc4)cc3)c3c(N)ncnc32)C1` [Tirabrutinib] (10 µM), for which the “number of time points” value came out at 0.

The values are drawn from the supplement of paper PMC12823440, “Inhibitors supercharge kinase turnover through native proteolytic circuits” (Nature, 2025).
